According to paper PMC3949517 (Acta Crystallographica Section D: Biological Crystallography, 2014):

Tested on: A17λ reactibody (FabA17λ)
Format: biochemical, human

Substance: p-nitrophenyl 8-methyl-8-azabicyclo[3.2.1]octylphenylphosphonate [phosphonate X]
- ΔS, phosphonate X: 7.6 1.8 calmol^1 K^1
